Laboratory results: PubChem BioAssay AID1053208 (Peter MacCallum Cancer Centre, 2014)

- Screen: 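Synthetic lethal interactions between gene loss and doxorubicin in osteosarcoma cells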 (primary screen)
- Cells: mouse osteosarcoma cells, early-passage culture from an engineered mouse model of fibroblastic bone tumour
- Knock-down reagent: siRNA pool against mouse genes, 40 nM
- Duration: about 120 h (48 h before drug, then 72 h with drug)
- Conditions: doxorubicin 100 nM for 72 h, roughly 30-40% inhibitory dose
- Detection: 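Luminescent ATP signal taken as viability with or without 100 nM doxorubicin for 72 h; mean of two wells set against non-targeting siRNA and turned into robust z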
- Reading the numbers: viability z-score with doxorubicin and doxorubicin viability vs non-targeting: higher = more viable cells under doxorubicin; viability z-score without drug: higher = more viable cells with knock-down alone; z-score of drug to no-drug ratio: higher = less drug sensitisation by knock-down
- Rule for the call: 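Called active if knock-down leaves viability unchanged without drug (z within -2 to 2) but lowers it with doxorubicin (z at or under -2)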
In all, the deposit lists about 17,000 reagents; this is a part drawn at random. 788 of them (4.7%) were called active. 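Calls rest on z-score classes alone; an extra cut-off of viability at most 70% of control was not applied to them.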 Unmarked entries are inactive. Reagents against one gene are numbered here.

target gene | reagent no. | combined z-score class | viability z-score with doxorubicin | viability z-score without drug | z-score of drug to no-drug ratio | doxorubicin viability vs non-targeting
Nrxn1 (GeneID 18189) | 1 | no change with or without drug | 0.34 | 0.51 | 0.11 | 0.97
Carmil1 (GeneID 68732) | 1 | no change with or without drug | -1.35 | -1.69 | -0.22 | 0.82
Carmil1 (GeneID 68732) | 2 | no change with or without drug | 0.67 | 0.51 | 0.45 | 1
Gtf2f2 (GeneID 68705) | 1 | no change with or without drug | 0.56 | -0.84 | 1.35 | 0.99
Mettl13 (GeneID 71449) | 1 | no change with or without drug | 0 | 0.51 | -0.22 | 0.94
Lurap1l (GeneID 52829) | 1 | no change with or without drug | 0.45 | 1.52 | -0.45 | 0.98
Prnp (GeneID 19122) | 1 | no change with or without drug | 0.45 | -0.17 | 0.67 | 0.98
Slc7a7 (GeneID 20540) | 1 | no change with or without drug | 0.79 | 0.84 | 0.34 | 1.01
Treh (GeneID 58866) | 1 | no change with or without drug | -0.67 | 0.51 | -0.9 | 0.88
Pycr3 (GeneID 66194) | 1 | low cell count with doxorubicin only (active) | -2.02 | 0.17 | -2.14 | 0.76
Pam16 (GeneID 66449) | 1 | no change with or without drug | -1.57 | -1.52 | -0.56 | 0.8
Zcchc18 (GeneID 66995) | 1 | no change with or without drug | 0.9 | -0.51 | 1.46 | 1.02
Vmn1r33 (GeneID 171187) | 1 | high cell count with and without drug | 2.25 | 2.19 | 0.9 | 1.14
Ubxn4 (GeneID 67812) | 1 | no change with or without drug | 0.56 | 0.84 | 0.11 | 0.99
Dsc3 (GeneID 13507) | 1 | no change with or without drug | -0.22 | 0.84 | -0.67 | 0.92
Siah2 (GeneID 20439) | 1 | no change with or without drug | -1.12 | -1.18 | -0.34 | 0.84
Ssxb1 (GeneID 67985) | 1 | no change with or without drug | -1.12 | 0.51 | -1.35 | 0.84
Aldh7a1 (GeneID 110695) | 1 | no change with or without drug | -0.22 | 0.51 | -0.45 | 0.92
Axl (GeneID 26362) | 1 | no change with or without drug | -0.34 | -0.51 | 0.11 | 0.91
TMEM16D | 1 | no change with or without drug | 0.9 | -0.17 | 1.24 | 1.02
Sec63 (GeneID 140740) | 1 | no change with or without drug | -0.45 | -1.18 | 0.45 | 0.9
Nxnl1 (GeneID 234404) | 1 | low cell count with doxorubicin only (active) | -2.14 | 0.17 | -2.25 | 0.75
Sva (GeneID 20939) | 1 | no change with or without drug | 1.57 | -0.84 | 2.47 | 1.08
Ostm1 (GeneID 14628) | 1 | no change with or without drug | -1.12 | -0.17 | -1.01 | 0.84
Tekt1 (GeneID 21689) | 1 | low cell count with and without drug | -2.25 | -2.87 | -0.34 | 0.74
Glmp (GeneID 56700) | 1 | no change with or without drug | -0.79 | 0.51 | -1.01 | 0.87
Trem2 (GeneID 83433) | 1 | no change with or without drug | -0.9 | -0.17 | -0.79 | 0.86
Swi5 (GeneID 72931) | 1 | high cell count with doxorubicin only | 3.26 | 0.17 | 3.37 | 1.23
Ces2a (GeneID 102022) | 1 | no change with or without drug | 0 | 0.51 | -0.22 | 0.94
Tnfrsf26 (GeneID 244237) | 1 | no change with or without drug | -0.34 | -0.17 | -0.11 | 0.91
Or9s18 (GeneID 258816) | 1 | no change with or without drug | -1.24 | -1.85 | 0.11 | 0.83
3010003L21Rik (GeneID 109163) | 1 | no change with or without drug | 1.8 | 0.34 | 1.69 | 1.1
Ybx3 (GeneID 56449) | 1 | no change with or without drug | 0.22 | 1.18 | -0.45 | 0.96
Cmtm5 (GeneID 67272) | 1 | no change with or without drug | 0.79 | -0.67 | 1.46 | 1.01
Clvs2 (GeneID 215890) | 1 | no change with or without drug | -1.01 | -1.18 | -0.11 | 0.85
Ccni (GeneID 12453) | 1 | no change with or without drug | -0.67 | -0.17 | -0.45 | 0.88
Tspo (GeneID 12257) | 1 | no change with or without drug | 1.12 | 1.01 | 0.56 | 1.04
Hdhd2 (GeneID 76987) | 1 | no change with or without drug | 0 | -0.51 | 0.45 | 0.94
Prss28 (GeneID 114661) | 1 | no change with or without drug | -0.67 | 0 | -0.56 | 0.88
Chkb (GeneID 12651) | 1 | no change with or without drug | 0 | -0.84 | 0.67 | 0.94
Fzd3 (GeneID 14365) | 1 | no change with or without drug | -0.67 | 1.52 | -1.46 | 0.88
Gpr22 (GeneID 73010) | 1 | high cell count without drug only | 0 | 2.19 | -1.24 | 0.94
Zfand2a (GeneID 100494) | 1 | no change with or without drug | 0 | 0.34 | -0.11 | 0.94
Cbx1 (GeneID 12412) | 1 | no change with or without drug | -0.22 | -0.51 | 0.22 | 0.92
Ms4a2 (GeneID 14126) | 1 | no change with or without drug | 1.57 | 1.35 | 0.79 | 1.08
Trp53rkb (GeneID 76367) | 1 | no change with or without drug | -1.35 | -1.35 | -0.45 | 0.82
Yrdc (GeneID 230734) | 1 | no change with or without drug | 0 | -1.69 | 1.46 | 0.94
6030443O07RIK | 1 | no change with or without drug | -0.9 | 1.52 | -1.69 | 0.86
Hpcal1 (GeneID 53602) | 1 | no change with or without drug | -0.9 | -1.18 | 0 | 0.86
Hhip (GeneID 15245) | 1 | no change with or without drug | 0.45 | 1.52 | -0.45 | 0.98

Part of the list above, reformatted:
Siah2 (GeneID 20439): combined z-score class = no change with or without drug; viability z-score with doxorubicin = -1.12; viability z-score without drug = -1.18; z-score of drug to no-drug ratio = -0.34; doxorubicin viability vs non-targeting = 0.84
Ssxb1 (GeneID 67985): combined z-score class = no change with or without drug; viability z-score with doxorubicin = -1.12; viability z-score without drug = 0.51; z-score of drug to no-drug ratio = -1.35; doxorubicin viability vs non-targeting = 0.84
Aldh7a1 (GeneID 110695): combined z-score class = no change with or without drug; viability z-score with doxorubicin = -0.22; viability z-score without drug = 0.51; z-score of drug to no-drug ratio = -0.45; doxorubicin viability vs non-targeting = 0.92
Axl (GeneID 26362): combined z-score class = no change with or without drug; viability z-score with doxorubicin = -0.34; viability z-score without drug = -0.51; z-score of drug to no-drug ratio = 0.11; doxorubicin viability vs non-targeting = 0.91
TMEM16D: combined z-score class = no change with or without drug; viability z-score with doxorubicin = 0.9; viability z-score without drug = -0.17; z-score of drug to no-drug ratio = 1.24; doxorubicin viability vs non-targeting = 1.02
